In article PMC8927676:
These are yes or no findings as the source states them, for the method shown. In cells and extracts the contact can be indirect. These calls come from enrichment with a bait or labelling near it, and not all partners need be listed.

The chains behind the UniProt entries cited, without tags or fusion partners. Where a name states a change or a piece, a line headed by the entry shows the natural chain unless it says otherwise.
UniProt P00367: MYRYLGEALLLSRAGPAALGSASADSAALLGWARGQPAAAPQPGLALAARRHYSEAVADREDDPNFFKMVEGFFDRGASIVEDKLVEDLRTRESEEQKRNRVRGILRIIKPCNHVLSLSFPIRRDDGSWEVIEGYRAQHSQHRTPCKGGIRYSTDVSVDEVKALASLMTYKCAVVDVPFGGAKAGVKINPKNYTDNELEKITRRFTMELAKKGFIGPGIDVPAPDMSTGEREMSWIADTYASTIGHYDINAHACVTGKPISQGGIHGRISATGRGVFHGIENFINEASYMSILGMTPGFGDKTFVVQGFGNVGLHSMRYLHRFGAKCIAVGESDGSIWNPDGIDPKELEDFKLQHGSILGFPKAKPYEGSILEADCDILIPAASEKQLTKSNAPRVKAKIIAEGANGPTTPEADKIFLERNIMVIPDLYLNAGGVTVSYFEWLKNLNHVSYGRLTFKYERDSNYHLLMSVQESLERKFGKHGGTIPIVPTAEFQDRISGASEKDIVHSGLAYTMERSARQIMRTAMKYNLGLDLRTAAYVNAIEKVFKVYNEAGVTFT

Molecular target: T1, Thymidine kinase 1 (human (all cell lines of the paper are human; the line used for the IP is not stated)) (UniProt P04183)
T1 sequence: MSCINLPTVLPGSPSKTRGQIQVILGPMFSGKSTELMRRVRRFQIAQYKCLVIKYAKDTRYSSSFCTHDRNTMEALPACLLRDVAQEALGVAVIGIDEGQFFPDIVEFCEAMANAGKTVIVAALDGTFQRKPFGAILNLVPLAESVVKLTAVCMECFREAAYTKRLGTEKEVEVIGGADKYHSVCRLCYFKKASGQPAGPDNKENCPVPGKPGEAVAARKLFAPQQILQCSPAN
Assay: affinity purification with mass spectrometry; TK1 as bait; cells lysed in IP lysis buffer (20 mM Tris-HCl pH 7.4, 150 mM NaCl, 1 mM EDTA, 1% NP-40), supernatant with Protein G Sepharose beads and antibody overnight at 4°C, washes with 300 mM and 150 mM NaCl; SDS-PAGE, LC-MS/MS (Q Exactive HF, MaxQuant)

## glutamate dehydrogenase (from UniProt P00367) (enzyme)
  binding: binds
